# Source: paper PMC10163288
# The other results are listed elsewhere or left out.
# B1: il2ra_site1_3nfp_sap_15_mot_44d7d87cef3b3f1636c8b2572508b1bf_0001_1_af2_000000239_0001_37_63_H_._5336601281b50f8c34db4f7065c370c5_0001_0001_0000100002_0000001_0 … (protein)
# chain: SSSSSDQEMAKRIDELLKKLAKAKSEEEREELEEELQRLAEEANSPLARWLARDIIEQVRSSSSS
# B2: il2ra_site1_2b5i_normal_mot_HHH_b2_04910_000000118_0001_1_19_H_._HHH_b1_04153_0001_0000100001_0000001_0_af2pred_0001_af2pred_1 (protein)
# chain: SSSSSNAAERAFELLREANELDRNGNPEEAQRVLEEALELAEEGNNKSLVRSIEAALRLVSSSSS
# B3: il2ra_site2_2erj_normal_mot_HHH_b1_02757_000000121_0001_41_57_H_._HHH_b1_02256_0001_0000700046_0000001_0_af2pred_0001_af2pred (protein)
# chain: SSSSSSSVEEEVKELLEQAKHIPDIREALKVLEEADRLALENDNEELLELITRVLRELSSSSSSS
# B4: il2ra_site2_3nfp_normal_mot_HHH_b2_05132_000000098_0001_38_52_H_._ems_3hC_866_af2_0001_0000300046_0000001_0 (protein)
# chain: SEEEEEEIEELERQLREAVKRNDKELIREIIKLITRFVYKFADDPEAFKLYSLAEEALLLVAQKS
# B5: il2ra_site2_3nfp_sap_23_mot_HHH_b1_06589_000000230_0001_37_50_H_._9e86e7d3cbcc58356358305d9d77cb6d_0001_1_af2_0001_0000200011_0000001_0_0001 (protein)
# chain: SSSSSKREEYIRAAIELAREAAEQGDPEVARRILHIALLAAEDLGNEELFEEVEELLRELSSSSS
# B6: il2ra_site2_3nfp_normal_mot_HHH_b1_05627_af2_000000038_0001_43_56_H_._HHH_b2_02384_0001_0000200007_0000001_0 (protein)
# chain: SSSSKAEEYLEAALLALEELKEEGNEEAARKVARAALLLAENLNDEELFEEIREILEELESSSSS
# B7: il2ra_site2_3nfp_sap_24_mot_HHH_b1_05437_000000005_0001_40_57_H_._efb1e6a814c01858843eeca3a22dd67d_0001_0001_0000500037_0000001_0_0001 (protein)
# chain: SSSSDRAEEYLRAALALLELAVEEGNEEQIKALTEMIKLAARANRDPEVEERAEELLEEFGSSSS
# B8: il2ra_site2_2erj_normal_mot_HHH_b1_07584_000000201_0001_42_55_H_._HHH_b1_06558_af2_0001_0000100001_0000001_0 (protein)
# chain: SSSDEFRELAIKAHELIRKYFEEGDERYREEVEELIEELKEEGDETLVRYLELSLRHAERASSSS
# B9: il2ra_site2_2erj_sap_27_mot_HHH_b1_08185_000000063_0001_41_55_H_._HHH_b1_03158_0001_0000300009_0000001_0_0001_af2pred_0001_1_af2pred_swapped (protein)
# chain: SSSDAQERAREVLEEVIELLRQGNHEEAKKLLEEAREILEELGDRAAVRLIEAALRLLESLSSSS
# B10: il2ra_site1_1z92_sap_5_mot_add8a691351788dd45ba4deda1838316_0001_1_000000225_0001_37_51_H_._78fdcade25ff32c2c6d5a412dc31b168_0001_1_0001_0000100004_0000001_0_00 … (protein)
# chain: SSSSSKYEKSIRWALKLLESAAKTRNERLFEFVVRQIRMAVKQNNNEELEEELERLEREFRSSSS
# B11: il2ra_site2_3nfp_normal_mot_HHH_b2_01155_000000159_0001_38_52_H_._c393a752425a4fe2e67a9f8335af7c62_0001_1_0001_0000300016_0000001_0 (protein)
# chain: SKLEEAKEVAKKANNPEAEEIVERVEELLREGDPEKLRELLARVTNEAYERNDPELFAVIAELAF
# B12: il2ra_site1_1z92_normal_mot_HHH_b1_02362_af2_000000131_0001_1_17_H_._HHH_b1_03387_0001_0001300105_0000001_0_af2pred_0001_af2pred (protein)
# chain: SSSSSDYARVALRILAKLFSEFGLSEEQLRILHEVALRLAERGLSEEEIERLLEEVAEELSSSSS
# B13: il2ra_site2_3nfp_normal_mot_HHH_b2_01406_000000272_0001_41_55_H_._HHH_b1_00555_af2_0001_0000500051_0000001_0 (protein)
# chain: SSSSDVEELLEEVRELLERGDLHEAFQVLAEASELAARLGDPELAELVAELYKLARELARKSSSS
# B14: il2ra_site2_3nfp_normal_mot_HHH_b1_02297_000000279_0001_41_58_H_._HHH_b2_06641_0001_0000200029_0000001_1 (protein)
# chain: SSSSDVEEEVRELLEQAERLLEEGNPEEARQLVARAAHLAYEANDFRLFALVNEVLAKIANSSSS
# B15: il2ra_site2_2erj_normal_mot_HHH_b2_05804_000000098_0001_44_58_H_._HHH_b1_07085_0001_0000200013_0000001_0 (protein)
# chain: SSSSSSEQEAWERVAELLARLLHVDEEEARKLLEEAEELAEEAGDPFLRRYVQFARRAHSSSSSS
# B16: il2ra_site2_2erj_normal_mot_af86707857d369f3e1d85dcabc5f9321_0001_000000201_0001_14_29_H_._HHH_b1_08035_af2_0001_0000400016_0000001_0 (protein)
# chain: SSSSDELEELLEQARELIEEGDPEEALKVLREAFLLAYELGDHEAAAEIQELVELVIRSESSSSS
# B17: il2ra_site1_1z92_sap_29_mot_HHH_b2_01810_000000233_0001_40_54_H_._HHH_b1_05292_af2_0001_0000500027_0000001_0_0001_af2pred_0001_af2pred (protein)
# chain: TAVEEDLEEAVEKNDEELLREFIELLLRDAGDPRLVEQLLKILVKRLGLPPEVLERLRKLLEELT
# B18: il2ra_site2_3nfp_normal_mot_HHH_b1_00487_000000023_0001_40_53_H_._ems_3hC_866_af2_0001_0000100003_0000001_0 (protein)
# chain: SEEEEEKIERLERELREAVERNDKELIKEIIRFIAEFVREFRDDPEAQRLFMLAAEALFLVAQES
# B19: il2ra_site1_2b5i_normal_mot_b0b48449b8979d840ab1151e5fe11a36_0001_af2_000000211_0001_16_31_H_._HHH_b1_06023_0001_0000300031_0000001_0_af2pred_dldesign_0_af2pred (protein)
# chain: SSSSAELEEALARLRALLAAGRLDEARALAEAFADRVEETDDPEMRKAFNEMLKLLYKAESSSSS
# B20: il2ra_site2_3nfp_normal_mot_HHH_b2_07007_000000117_0001_21_37_H_._ems_4hM_3289_0001_af2_0001_0000200014_0000001_0 (protein)
# chain: SDEERIEEAVERASKGDEEAAEIVFEAFARALEDPEVRKIWAEVLNKFDSEEIEAVLEVLRELAS
# B21: il2ra_site2_2erj_sap_29_mot_38c2a25aa59ed796a93a89c387754b2e_0001_1_000000210_0001_16_32_H_._5f42aca8a0c299d7b7d7982f3e471efe_0001_0001_0000200016_0000001_0_000 … (protein)
# chain: SSSDRLHHIYKVANRLMHLLLRGNEEEAQRLIEEAREFAEKAGDEQSVENLEEVWERLEKSSSSS
# B22: il2ra_site2_2erj_normal_mot_HHH_b2_07381_000000268_0001_1_20_H_._HEEHE_2349_0001_0000100001_0000001_0_af2pred_0001_af2pred (protein)
# chain: SDERLLEIAARAWAERAGVPDVSVEVHNGTLEVEFTGTTERLKEVLEALRFAAEQHGLEFESSSE
# B23: il2ra_site2_3nfp_sap_17_mot_HHH_b1_02226_af2_000000060_0001_38_52_H_._HHH_b2_04170_af2_0001_0000400015_0000001_0_0001 (protein)
# chain: SSSSEIEEYVEAAIELLKRAVEEGDERAVEALAHLAELSAEDANNPELLEEVQRLVEEFRESSSS
# B24: il2ra_site2_2erj_sap_13_mot_HHH_b2_06646_af2_000000081_0001_19_36_H_._HHH_b2_03552_0001_0000100013_0000001_0_0001 (protein)
# chain: SSSSSEFEERLEELLQRIEEAIERGNERLALELITEALELLLENRDKEIAARLYRLMRELFSSSS
# Biological target: il2ra, P01589
# Assay: yeast display titration
row,Binder,apparent Kd
1,B1,inactive: no binding seen
2,B2,inactive: no binding seen
3,B3,inactive: no binding seen
4,B4,inactive: no binding seen
5,B5,inactive: no binding seen
6,B6,inactive: no binding seen
7,B7,inactive: no binding seen
8,B8,inactive: no binding seen
9,B9,inactive: no binding seen
10,B10,inactive: no binding seen
11,B11,inactive: no binding seen
12,B12,inactive: no binding seen
13,B13,inactive: no binding seen
14,B14,inactive: no binding seen
15,B15,inactive: no binding seen
16,B16,inactive: no binding seen
17,B17,inactive: no binding seen
18,B18,inactive: no binding seen
19,B19,inactive: no binding seen
20,B20,inactive: no binding seen
21,B21,inactive: no binding seen
22,B22,inactive: no binding seen
23,B23,inactive: no binding seen
24,B24,inactive: no binding seen

# Some of the entries so far, tab-delimited.
row	Binder	apparent Kd
17	B17	inactive: no binding seen
24	B24	inactive: no binding seen
